Results are given in words; binding and its absence hold for the method and conditions named. Binding seen in cells or lysates may run through a third protein. Some results given as binding are weak or reduced against the parent protein; the word gives no strength. For some assays here: Tags and fused reporters may be left off the sequences shown.
Experiments:
[1] = biological target: T1, GFP-Rab13 (human) (UniProt P51153); experiment: co-IP
T1 sequence: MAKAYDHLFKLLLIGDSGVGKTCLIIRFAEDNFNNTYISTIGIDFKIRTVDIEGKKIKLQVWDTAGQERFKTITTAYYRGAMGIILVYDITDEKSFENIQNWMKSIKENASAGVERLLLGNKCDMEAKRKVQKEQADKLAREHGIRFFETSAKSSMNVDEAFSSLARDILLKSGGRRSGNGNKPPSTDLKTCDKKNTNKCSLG

Chains of the proteins cited; added tags and fusions are not shown. Lines headed by an entry give the natural chain unless they say otherwise; changes in a name come on top.
UniProt P61026: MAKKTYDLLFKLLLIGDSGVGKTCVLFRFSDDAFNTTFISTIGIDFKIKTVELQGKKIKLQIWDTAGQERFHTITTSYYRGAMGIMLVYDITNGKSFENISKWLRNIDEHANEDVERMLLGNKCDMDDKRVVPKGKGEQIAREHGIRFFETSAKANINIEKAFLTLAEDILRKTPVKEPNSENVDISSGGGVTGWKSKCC
UniProt P62330: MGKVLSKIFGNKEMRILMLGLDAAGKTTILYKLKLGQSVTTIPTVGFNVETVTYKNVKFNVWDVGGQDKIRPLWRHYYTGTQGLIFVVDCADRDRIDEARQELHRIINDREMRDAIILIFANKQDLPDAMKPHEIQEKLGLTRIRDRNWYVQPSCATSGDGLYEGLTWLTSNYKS
UniProt Q15286: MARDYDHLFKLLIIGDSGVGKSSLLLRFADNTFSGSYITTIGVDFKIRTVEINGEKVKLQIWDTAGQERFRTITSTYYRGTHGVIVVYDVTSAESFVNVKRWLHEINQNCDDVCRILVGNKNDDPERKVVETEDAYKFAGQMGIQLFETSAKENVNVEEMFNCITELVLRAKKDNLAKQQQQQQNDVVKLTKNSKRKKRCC

[2] = biological target: GFP-Rab10 (human) (UniProt P61026); experiment: co-IP
[3] = biological target: GFP-ARF6 (human) (UniProt P62330); experiment: co-IP
[4] = biological target: GFP-Rab35 (human) (UniProt Q15286); experiment: co-IP
[5] = biological target: GFP-ARF6 Q67L (human) (UniProt P62330); experiment: co-IP
[6] = biological target: T2, GFP-Rab37 (human) (UniProt Q96AX2); experiment: co-IP
T2 sequence: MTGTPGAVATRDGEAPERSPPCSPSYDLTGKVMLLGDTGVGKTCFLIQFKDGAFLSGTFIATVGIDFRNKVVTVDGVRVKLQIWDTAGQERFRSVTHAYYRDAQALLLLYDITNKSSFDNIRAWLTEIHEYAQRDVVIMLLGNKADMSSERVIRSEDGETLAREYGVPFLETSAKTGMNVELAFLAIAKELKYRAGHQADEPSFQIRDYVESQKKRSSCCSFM

[7] = biological target: T3, GFP-Rab43a (human) (UniProt Q86YS6); experiment: co-IP
T3 sequence: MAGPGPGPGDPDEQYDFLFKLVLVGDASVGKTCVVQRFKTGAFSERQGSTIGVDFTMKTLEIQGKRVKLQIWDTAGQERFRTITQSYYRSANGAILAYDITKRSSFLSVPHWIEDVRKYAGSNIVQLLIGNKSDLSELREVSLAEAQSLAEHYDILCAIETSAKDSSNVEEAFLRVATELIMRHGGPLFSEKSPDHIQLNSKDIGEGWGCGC

[8] = biological target: GFP-ARF6 (human) (UniProt P62330); experiment: co-IP; infection time-course from 2.5 to 7.5 h of infection; data not shown

Measured: binding

B1: EspG:4xHA (protein, UniProt Q7DB50 1-381)
chain: MINGLNNDSASLVLDAAMKVNSGFKKSWDEMSCAEKLFKVLSFGLWNPTYSRSERQSFQELLTVLEPVYPLPNELGRVSARFSDGSSLRISVTNSELVEAEIRTANNEKITVLLESNEQNRLLQSLPIDRHMPYIQVHRALSEMDLTDTTSMRNLLGFTSKLSTTLIPHNAQTDPLSGPTPFSSIFMDTCRGLGNAKLSLNGVDIPANAQKLLRDALGLKDTHSSPTRNVIDHGISRHDAEQIARESSGSDKQKAEVVEFLCHPEAATAICSAFYQSFNVPALTLTHERISKASEYNAERSLDTPNACINISISQSSDGNIYVTSHTGVLIMAPEDRPNEMGMLTNRTSYEVPQGVKCIIDEMVSALQPRYAASETYLQNT
binds: [1] | [2] | [3] | [4] | [5] | [6] | [7] | [8]
